This is one part of the list. Most values lie at the level of the controls, where differences are scatter.

Sequences of proteins named here, by UniProt entry; tags and fusion partners are left off. A change or cut given only in a name is not applied to a line headed by its entry.
UniProt Q9P281: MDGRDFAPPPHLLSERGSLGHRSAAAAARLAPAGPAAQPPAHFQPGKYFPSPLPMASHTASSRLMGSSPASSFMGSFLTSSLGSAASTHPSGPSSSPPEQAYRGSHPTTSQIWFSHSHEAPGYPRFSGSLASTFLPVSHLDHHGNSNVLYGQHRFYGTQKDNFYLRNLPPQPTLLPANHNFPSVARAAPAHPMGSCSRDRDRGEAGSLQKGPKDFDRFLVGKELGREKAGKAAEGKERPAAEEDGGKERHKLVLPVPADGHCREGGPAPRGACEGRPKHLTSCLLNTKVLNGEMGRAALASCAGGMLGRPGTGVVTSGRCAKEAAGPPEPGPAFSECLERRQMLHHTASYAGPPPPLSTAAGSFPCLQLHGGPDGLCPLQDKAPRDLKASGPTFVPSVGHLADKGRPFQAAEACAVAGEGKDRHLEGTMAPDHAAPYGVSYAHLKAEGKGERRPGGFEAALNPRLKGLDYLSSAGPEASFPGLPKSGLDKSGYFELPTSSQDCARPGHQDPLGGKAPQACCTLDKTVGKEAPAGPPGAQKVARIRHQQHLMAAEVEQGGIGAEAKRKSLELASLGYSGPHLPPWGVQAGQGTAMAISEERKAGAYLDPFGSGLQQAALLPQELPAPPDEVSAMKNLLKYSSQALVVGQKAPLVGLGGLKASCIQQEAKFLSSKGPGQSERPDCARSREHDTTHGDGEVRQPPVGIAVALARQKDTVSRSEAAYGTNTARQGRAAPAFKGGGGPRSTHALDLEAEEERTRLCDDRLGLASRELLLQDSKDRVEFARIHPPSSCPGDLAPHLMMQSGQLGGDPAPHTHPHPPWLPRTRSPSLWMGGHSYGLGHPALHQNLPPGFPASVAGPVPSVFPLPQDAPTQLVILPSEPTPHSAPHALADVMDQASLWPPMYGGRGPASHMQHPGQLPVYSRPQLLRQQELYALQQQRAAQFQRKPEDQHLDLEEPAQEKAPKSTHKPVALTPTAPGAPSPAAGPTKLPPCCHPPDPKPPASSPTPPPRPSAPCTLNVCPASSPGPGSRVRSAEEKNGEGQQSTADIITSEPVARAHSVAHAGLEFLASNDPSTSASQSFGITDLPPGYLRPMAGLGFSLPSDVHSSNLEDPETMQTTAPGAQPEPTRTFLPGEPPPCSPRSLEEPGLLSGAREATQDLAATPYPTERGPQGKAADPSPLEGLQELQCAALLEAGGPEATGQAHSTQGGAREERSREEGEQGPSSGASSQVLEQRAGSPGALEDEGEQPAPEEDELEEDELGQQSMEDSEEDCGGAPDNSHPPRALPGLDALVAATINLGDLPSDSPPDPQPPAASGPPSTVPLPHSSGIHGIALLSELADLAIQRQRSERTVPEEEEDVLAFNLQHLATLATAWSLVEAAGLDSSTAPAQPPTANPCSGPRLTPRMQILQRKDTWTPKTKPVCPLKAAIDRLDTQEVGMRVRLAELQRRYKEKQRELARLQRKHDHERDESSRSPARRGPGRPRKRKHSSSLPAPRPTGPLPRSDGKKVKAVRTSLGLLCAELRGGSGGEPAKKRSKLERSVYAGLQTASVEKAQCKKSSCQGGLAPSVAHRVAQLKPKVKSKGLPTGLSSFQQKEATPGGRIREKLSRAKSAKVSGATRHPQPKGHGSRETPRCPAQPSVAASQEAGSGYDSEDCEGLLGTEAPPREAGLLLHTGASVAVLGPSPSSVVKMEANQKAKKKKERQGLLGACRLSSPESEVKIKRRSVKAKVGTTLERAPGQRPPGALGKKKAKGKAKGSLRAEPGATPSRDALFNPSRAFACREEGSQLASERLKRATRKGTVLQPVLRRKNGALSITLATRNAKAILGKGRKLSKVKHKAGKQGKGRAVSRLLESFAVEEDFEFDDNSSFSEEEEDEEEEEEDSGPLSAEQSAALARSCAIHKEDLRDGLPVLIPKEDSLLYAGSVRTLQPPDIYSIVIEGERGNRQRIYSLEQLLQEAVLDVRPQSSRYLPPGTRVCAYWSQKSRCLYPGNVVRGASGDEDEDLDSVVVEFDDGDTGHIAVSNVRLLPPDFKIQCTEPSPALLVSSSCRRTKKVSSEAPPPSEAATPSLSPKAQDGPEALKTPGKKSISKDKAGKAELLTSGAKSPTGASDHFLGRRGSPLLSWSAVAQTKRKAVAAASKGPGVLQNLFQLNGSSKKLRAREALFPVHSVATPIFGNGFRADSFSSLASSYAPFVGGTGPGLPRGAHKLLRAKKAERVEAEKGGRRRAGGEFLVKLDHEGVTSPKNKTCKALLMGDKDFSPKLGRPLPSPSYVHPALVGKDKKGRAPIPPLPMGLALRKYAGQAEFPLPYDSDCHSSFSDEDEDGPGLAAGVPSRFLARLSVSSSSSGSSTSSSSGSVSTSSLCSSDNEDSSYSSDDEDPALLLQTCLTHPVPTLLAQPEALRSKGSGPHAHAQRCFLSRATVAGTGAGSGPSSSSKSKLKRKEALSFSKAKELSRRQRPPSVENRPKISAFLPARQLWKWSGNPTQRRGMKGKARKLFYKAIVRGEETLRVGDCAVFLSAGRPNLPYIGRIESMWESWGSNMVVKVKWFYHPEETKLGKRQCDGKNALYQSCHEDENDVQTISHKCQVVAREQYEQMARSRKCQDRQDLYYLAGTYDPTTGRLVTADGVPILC
UniProt Q9NXG2: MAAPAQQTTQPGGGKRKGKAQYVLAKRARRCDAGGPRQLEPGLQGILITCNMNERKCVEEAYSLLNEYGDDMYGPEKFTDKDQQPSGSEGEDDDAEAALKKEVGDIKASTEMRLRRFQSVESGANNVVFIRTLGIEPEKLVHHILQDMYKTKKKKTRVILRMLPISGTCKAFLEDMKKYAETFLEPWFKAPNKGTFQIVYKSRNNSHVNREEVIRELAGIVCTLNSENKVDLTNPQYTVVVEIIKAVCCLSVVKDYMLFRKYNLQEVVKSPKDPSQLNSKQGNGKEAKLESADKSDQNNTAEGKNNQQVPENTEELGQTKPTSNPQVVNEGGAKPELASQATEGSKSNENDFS
UniProt Q9NYF5: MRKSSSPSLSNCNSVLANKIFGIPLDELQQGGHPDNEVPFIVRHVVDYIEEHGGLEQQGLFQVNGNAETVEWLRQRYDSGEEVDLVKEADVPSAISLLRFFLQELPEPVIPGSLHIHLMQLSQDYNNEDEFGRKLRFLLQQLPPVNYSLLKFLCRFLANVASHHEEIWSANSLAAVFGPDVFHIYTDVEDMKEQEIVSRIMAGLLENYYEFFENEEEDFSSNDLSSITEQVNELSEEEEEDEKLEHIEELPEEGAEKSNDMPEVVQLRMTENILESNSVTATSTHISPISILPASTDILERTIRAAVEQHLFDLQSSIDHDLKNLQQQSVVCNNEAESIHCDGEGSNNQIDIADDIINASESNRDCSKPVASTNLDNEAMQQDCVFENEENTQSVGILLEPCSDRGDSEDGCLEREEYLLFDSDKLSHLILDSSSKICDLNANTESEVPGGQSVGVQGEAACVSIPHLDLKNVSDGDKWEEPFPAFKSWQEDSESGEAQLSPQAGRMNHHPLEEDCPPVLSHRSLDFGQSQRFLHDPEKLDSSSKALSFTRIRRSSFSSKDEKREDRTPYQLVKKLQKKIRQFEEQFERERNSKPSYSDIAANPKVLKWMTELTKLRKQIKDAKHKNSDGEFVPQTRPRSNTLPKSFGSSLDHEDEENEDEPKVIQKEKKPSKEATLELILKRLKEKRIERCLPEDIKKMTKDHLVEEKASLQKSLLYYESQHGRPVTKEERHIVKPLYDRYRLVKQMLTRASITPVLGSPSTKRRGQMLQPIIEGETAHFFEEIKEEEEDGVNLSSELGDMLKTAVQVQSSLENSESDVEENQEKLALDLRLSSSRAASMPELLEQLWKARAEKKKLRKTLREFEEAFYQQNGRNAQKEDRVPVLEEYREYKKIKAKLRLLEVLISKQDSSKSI
UniProt Q9UGN5: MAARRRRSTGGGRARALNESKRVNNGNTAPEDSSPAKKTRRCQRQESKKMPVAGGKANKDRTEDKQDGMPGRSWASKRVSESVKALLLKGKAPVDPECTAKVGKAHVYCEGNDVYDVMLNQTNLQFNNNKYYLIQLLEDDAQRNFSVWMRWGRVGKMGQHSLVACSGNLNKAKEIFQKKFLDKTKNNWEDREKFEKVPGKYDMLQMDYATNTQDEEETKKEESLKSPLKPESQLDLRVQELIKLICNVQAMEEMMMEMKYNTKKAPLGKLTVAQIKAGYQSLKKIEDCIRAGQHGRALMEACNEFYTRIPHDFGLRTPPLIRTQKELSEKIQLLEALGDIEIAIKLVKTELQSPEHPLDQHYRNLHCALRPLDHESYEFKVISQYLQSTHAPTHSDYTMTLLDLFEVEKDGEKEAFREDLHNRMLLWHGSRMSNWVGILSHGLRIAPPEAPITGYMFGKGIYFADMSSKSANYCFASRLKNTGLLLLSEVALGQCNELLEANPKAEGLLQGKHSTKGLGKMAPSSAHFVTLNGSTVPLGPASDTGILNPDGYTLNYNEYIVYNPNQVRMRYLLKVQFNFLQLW
UniProt Q9UH65: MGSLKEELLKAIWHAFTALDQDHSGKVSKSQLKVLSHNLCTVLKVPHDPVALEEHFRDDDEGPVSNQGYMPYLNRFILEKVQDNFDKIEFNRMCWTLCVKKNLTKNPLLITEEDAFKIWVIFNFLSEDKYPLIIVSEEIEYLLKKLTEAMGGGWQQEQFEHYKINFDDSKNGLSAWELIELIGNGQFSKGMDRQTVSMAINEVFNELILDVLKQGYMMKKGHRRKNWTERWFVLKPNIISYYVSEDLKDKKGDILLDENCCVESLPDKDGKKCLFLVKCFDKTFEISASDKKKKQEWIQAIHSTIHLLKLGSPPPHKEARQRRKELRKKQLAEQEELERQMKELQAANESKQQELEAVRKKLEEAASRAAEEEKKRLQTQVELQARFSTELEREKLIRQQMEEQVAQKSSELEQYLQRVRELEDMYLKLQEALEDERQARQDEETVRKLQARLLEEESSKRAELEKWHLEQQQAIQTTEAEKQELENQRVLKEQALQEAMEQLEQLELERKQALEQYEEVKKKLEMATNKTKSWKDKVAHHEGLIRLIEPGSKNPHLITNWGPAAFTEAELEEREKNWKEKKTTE
UniProt Q9NXJ5: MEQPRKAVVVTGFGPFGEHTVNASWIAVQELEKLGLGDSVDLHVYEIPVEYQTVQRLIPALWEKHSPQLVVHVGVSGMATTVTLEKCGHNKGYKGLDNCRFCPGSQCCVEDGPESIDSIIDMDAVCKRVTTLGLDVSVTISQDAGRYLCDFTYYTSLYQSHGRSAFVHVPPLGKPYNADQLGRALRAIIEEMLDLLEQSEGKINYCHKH
UniProt Q9UDT6: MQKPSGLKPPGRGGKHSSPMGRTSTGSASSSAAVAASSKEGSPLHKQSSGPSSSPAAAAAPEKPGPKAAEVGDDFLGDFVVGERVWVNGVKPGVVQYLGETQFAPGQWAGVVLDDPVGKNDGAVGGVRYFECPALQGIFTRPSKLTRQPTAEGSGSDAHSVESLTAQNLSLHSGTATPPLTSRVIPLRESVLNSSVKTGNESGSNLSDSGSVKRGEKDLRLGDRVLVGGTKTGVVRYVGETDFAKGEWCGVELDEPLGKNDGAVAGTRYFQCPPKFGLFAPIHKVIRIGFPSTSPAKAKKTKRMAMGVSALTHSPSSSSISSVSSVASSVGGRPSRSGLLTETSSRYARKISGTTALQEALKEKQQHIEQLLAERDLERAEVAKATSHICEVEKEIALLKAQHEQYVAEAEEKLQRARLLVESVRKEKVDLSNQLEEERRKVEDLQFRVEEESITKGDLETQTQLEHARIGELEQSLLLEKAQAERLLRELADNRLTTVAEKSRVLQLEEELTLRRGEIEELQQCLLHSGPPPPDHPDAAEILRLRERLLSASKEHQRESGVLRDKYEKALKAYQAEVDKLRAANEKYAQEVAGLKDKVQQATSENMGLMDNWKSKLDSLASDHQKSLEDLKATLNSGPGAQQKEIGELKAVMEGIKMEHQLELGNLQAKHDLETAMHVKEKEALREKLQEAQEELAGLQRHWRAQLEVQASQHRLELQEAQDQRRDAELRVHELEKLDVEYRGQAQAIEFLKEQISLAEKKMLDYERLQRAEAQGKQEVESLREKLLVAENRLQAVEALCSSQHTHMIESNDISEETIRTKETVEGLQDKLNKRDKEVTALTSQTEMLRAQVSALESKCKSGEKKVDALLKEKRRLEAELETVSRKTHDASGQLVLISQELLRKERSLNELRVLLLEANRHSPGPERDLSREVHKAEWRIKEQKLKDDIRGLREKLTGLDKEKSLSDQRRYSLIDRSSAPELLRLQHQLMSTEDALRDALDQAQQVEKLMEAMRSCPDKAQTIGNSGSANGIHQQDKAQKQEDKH

Compound in this test: Cc1nc(Nc2ncc(C(=O)Nc3c(C)cccc3Cl)s2)cc(N2CCN(CCO)CC2)n1 [dasatinib]
Nature of the test: log2 fold change of tryptic peptide abundance, ligand vs vehicle (limited proteolysis) (log2 ratio); higher = more trypsin-susceptible (destabilized). Particulars: ligand concentration: 5 uM; sample: K562 cleared lysate.
Take “BAHCC1 (peptide sequence: KSSCQGGLAPSVAHR, peptide start residue: 1561) (UniProt Q9P281)”: the log2 fold change is -0.68.

Turning to “UniProt Q9NYL2 (peptide sequence: LLLLEEEDLKDMGIVSK, peptide start residue: 378)”, the log2 fold change was found to be 0.4.

Consider “THUMPD1 (peptide sequence: SDQNNTAEGK, peptide start residue: 295) (UniProt Q9NXG2)”, for which the log2 fold change came to 0.169.

With “UniProt Q9NYF5 (peptide sequence: SNDMPEVVQLR, peptide start residue: 258)”, the log2 fold change is -0.083.

On to “PARP2 (peptide sequence: VNNGNTAPEDSSPAKK, peptide start residue: 23) (UniProt Q9UGN5)”, for which the log2 fold change is 0.977.

Regarding “SWAP70 (peptide sequence: DKVAHHEGLIR, peptide start residue: 536) (UniProt Q9UH65)”, the log2 fold change is 1.92.

With “LIMD1 (peptide sequence: ADYFGACVKCSK, peptide start residue: 466) (UniProt Q9UGP4)”, the log2 fold change turned out to be 0.251.

On to “PGPEP1 (peptide sequence: LIPALWEK, peptide start residue: 57) (UniProt Q9NXJ5)”, for which the log2 fold change is -0.0569.

For the target “CLIP2 (peptide sequence: QQHIEQLLAER, peptide start residue: 361) (UniProt Q9UDT6)”, the log2 fold change amounted to 0.1.

Values taken from the supplement of paper PMC12819154, “High-throughput peptide-centric local stability assay extends protein–ligand identification to membrane proteins, tissues and bacteria” (Nature Structural & Molecular Biology, 2025).
